Measurements as given in paper PMC4467423.
Results are given in words; binding and its absence hold for the method and conditions named. Binding seen in cells or lysates may run through a third protein. Some entries that bind do so weakly or less than the wild type. For part of these data: Tags and fused reporters may be left off the sequences shown.

The chains behind the UniProt entries cited, without tags or fusion partners.
UniProt O15392: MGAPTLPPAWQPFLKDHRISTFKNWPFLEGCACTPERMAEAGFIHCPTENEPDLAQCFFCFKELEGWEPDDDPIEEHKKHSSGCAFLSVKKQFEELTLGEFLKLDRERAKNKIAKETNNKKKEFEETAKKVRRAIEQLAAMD

Experiments:
[1] = target: T1, HSET/KifC1 (human (endogenous in MDA-MB-231)) (UniProt Q9BW19); assay: co-IP; anti-HSET antibody (4 ul) on whole cell lysates (500 ug protein) of MDA-MB-231 cells transiently transfected with control vector, HSET-pEGFP plasmid or HSET siRNA; overnight 4°C, protein A-agarose beads; blot for survivin; beads-only control
T1 sequence: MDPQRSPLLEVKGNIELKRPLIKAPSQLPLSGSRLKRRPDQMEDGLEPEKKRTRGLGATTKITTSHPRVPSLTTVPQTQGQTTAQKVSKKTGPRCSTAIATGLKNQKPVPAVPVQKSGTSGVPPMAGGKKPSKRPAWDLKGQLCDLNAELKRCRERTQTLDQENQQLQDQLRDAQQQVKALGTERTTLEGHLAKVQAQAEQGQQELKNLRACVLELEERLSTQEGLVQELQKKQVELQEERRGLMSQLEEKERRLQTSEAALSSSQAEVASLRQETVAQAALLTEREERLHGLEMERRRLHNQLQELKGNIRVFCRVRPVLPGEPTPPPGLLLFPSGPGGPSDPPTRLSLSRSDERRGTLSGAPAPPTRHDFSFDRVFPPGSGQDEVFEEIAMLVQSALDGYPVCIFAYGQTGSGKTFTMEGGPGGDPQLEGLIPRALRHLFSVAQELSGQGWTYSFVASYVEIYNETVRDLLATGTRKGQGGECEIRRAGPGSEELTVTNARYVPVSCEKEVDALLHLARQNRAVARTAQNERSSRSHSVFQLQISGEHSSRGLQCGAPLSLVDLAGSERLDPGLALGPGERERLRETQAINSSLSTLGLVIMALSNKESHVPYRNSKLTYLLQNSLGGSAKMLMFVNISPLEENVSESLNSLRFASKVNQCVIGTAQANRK

[2] = target: T2, HSET-GFP (human) (UniProt Q9BW19); assay: as above
T2 sequence: T1 sequence

[3] = target: survivin (human (endogenous in MDA-MB-231)) (UniProt O15392); assay: co-IP; anti-survivin antibody (4 ul) on MDA-MB-231 cell lysates (500 ug protein); overnight 4°C, protein A-agarose beads; blot with HSET antibody

Molecule: survivin (from UniProt O15392 1-142)
- binding [1]: binds
- binding [2]: binds

B1: HSET/KifC1 (protein, UniProt Q9BW19 1-673)
chain: T1 sequence
- binding [3]: binds
